Sequences of proteins named here, by UniProt entry; tags and fusion partners are left off. Residues count along the entry.
UniProt Q07011, 24-186: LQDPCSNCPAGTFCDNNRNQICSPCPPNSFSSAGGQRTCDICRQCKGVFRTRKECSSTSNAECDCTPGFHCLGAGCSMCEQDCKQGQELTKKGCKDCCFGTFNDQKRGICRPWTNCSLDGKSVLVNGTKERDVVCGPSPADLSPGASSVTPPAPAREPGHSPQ

In patent US20100076060:

Tests used:
[1] = target: 4-1BB (CD137) extracellular portion (Homo sapiens) (UniProt Q07011); assay: SELEX; conditions: 2'-F pyrimidines; purified recombinant protein; protein details: human IgG1 Fc fusion
[2] = target: T1, 4-1BB (CD137) extracellular portion (Mus musculus) (UniProt P20334); assay: SELEX; conditions: 2'-F pyrimidines; purified recombinant protein; protein details: human IgG1 Fc fusion
T1 sequence: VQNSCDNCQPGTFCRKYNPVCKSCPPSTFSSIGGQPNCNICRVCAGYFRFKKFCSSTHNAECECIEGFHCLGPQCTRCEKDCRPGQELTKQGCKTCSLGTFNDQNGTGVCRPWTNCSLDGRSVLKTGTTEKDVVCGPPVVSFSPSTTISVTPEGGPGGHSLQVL

| Sequence | selection result [1] | selection result [2] |
| --- | --- | --- |
| GGGAGAGAGGAAGAGGGAUGGGACCUGACGCAUACCUCCUCCCACCGCAAGUGCCCUCCGCUCAUAACCCAGAGGUCGAUAGUACUGGAUCCCCCC [4-1BB aptamer SEQ 51] | selected | selected |
| GGGAGAGAGGAAGAGGGAUGGGACCUUUACCGCCGACCCGGACAGAGUGAGCCUCUGCAGAGCAUAACCCAGAGGUCGAUAGUACUGGAUCCCCCC [4-1BB aptamer SEQ 74] | selected | selected |
| GGGAGAGAGGAAGAGGGAUGGGACGACCUCUUUGAUUACCUGGGCUGAUUCGCCAUCUUCACCAUAACCCAGAGGUCGAUAGUACUGGAUCCCCCC [4-1BB aptamer SEQ 53] | selected | selected |
| GGGAGAGAGGAAGAGGGAUGGGACGACCUCUUUGAUUACCUGGGCUGAUUUGCCAUCUUCACCAUAACCCAGAGGUCGAUAGUACUGGAUCCCCCC [4-1BB aptamer SEQ 52] | selected | selected |
| GGGAGAGAGGAAGAGGGAUGGGAUACCUGUACCUUGCAACACUGCCCGACGACGCACCCGCACAUAACCCAGAGGUCGAUAGUACUGGAUCCCCCC [4-1BB aptamer SEQ 71] | selected | selected |
| GGGAGAGAGGAAGAGGGAUGGGCAAACUUCCCUGUGGUUAUAGCACUGCGUUGGGUCCCUUGCAUAACCCAGAGGUCGAUAGUACUGGAUCCCCCC [4-1BB aptamer SEQ 70] | selected | selected |
| GGGAGAGAGGAAGAGGGAUGGGCACCAUCGAUAUCACGCACUGACACCAGUACCCUUGCGCACAUAACCCAGAGGUCGAUAGUACUGGAUCCCCCC [4-1BB aptamer SEQ 55] | selected | selected |
| GGGAGAGAGGAAGAGGGAUGGGCACCCUUCGUCUCAACCACCCAACUCUCCAUGUCCCUAACCAUAACCCAGAGGUCGAUAGUACUGGAUCCCCCC [4-1BB aptamer SEQ 69] | selected | selected |
| GGGAGAGAGGAAGAGGGAUGGGCACCUUCCCUUUCUCCAAGACAAGCCUCAUGUCAAACUCUCAUAACCCAGAGGUCGAUAGUACUGGAUCCCCCC [4-1BB aptamer SEQ 66] | selected | selected |
| GGGAGAGAGGAAGAGGGAUGGGCACUUCCACUCACAACGGCAAAACUUCAACUCCAAUACCCUCAUAACCCAGAGGUCGAUAGUACUGGAUCCCCCC [4-1BB aptamer SEQ 63] | selected | selected |
| GGGAGAGAGGAAGAGGGAUGGGCCACACGCUACUAUCAACCGCUGCGUUCAAACUUGGGAUCCAUAACCCAGAGGUCGAUAGUACUGGAUCCCCCC [4-1BB aptamer SEQ 72] | selected | selected |
| GGGAGAGAGGAAGAGGGAUGGGCCCCCGCGUCCUCCCAACCCAAAAUUCCCCUGGCACCCUCCAUAACCCAGAGGUCGAUAGUACUGGAUCCCCCC [4-1BB aptamer SEQ 59] | selected | selected |
| GGGAGAGAGGAAGAGGGAUGGGCCGACGACCUCCUUCACCUCCCCUUCCUCGAACUCCAACCCAUAACCCAGAGGUCGAUAGUACUGGAUCCCCCC [4-1BB aptamer SEQ 50] | selected | selected |
| GGGAGAGAGGAAGAGGGAUGGGCCUCACUGCGUAAUCCGCCGUGAUUCACCGCUGUACACGACAUAACCCAGAGGUCGAUAGUACUGGAUCCCCCC [4-1BB aptamer SEQ 54] | selected | selected |
| GGGAGAGAGGAAGAGGGAUGGGCGAUCCUCUGUACACGACACUCAUUCCACAGUACGGGACGCAUAACCCAGAGGUCGAUAGUACUGGAUCCCCCC [4-1BB aptamer SEQ 68] | selected | selected |
| GGGAGAGAGGAAGAGGGAUGGGCGCACUACCUGCACAUUGACCAGUACCCCUGUGCCACGCUCAUAACCCAGAGGUCGAUAGUACUGGAUCCCCCC [4-1BB aptamer SEQ 49] | selected | selected |
| GGGAGAGAGGAAGAGGGAUGGGCUCCAGAACCCUUCGACCUGCACGACGGUCUUCCUCGCGUCAUAACCCAGAGGUCGAUAGUACUGGAUCCCCCC [4-1BB aptamer SEQ 75] | selected | selected |
| GGGAGAGAGGAAGAGGGAUGGGCUCCAGACAUAGUAUCCGCCAGUAACCUCUGUAACGCCCGCAUAACCCAGAGGUCGAUAGUACUGGAUCCCCCC [4-1BB aptamer SEQ 48] | selected | selected |
| GGGAGAGAGGAAGAGGGAUGGGGAAACCUGUGCGCAUGAAGAGCUGCUAACCCGUUACGAACCAUAACCCAGAGGUCGAUAGUACUGGAUCCCCCC [4-1BB aptamer SEQ 57] | selected | selected |
| GGGAGAGAGGAAGAGGGAUGGGGACCAGUCUAACCAUCCACACUCUGUCAUUGCCCAGCGCCCAUAACCCAGAGGUCGAUAGUACUGGAUCCCCCC [4-1BB aptamer SEQ 73] | selected | selected |
| GGGAGAGAGGAAGAGGGAUGGGGAUCAAACUAAUCGCCCUCUAACUUGAUCGGCCCGACUCCCAUAACCCAGAGGUCGAUAGUACUGGAUCCCCCC [4-1BB aptamer SEQ 58] | selected | selected |
| GGGAGAGAGGAAGAGGGAUGGGGCCUUUACACCGACCCUGCCAAGAACGAAGCGCGAACAACCAUAACCCAGAGGUCGAUAGUACUGGAUCCCCCC [4-1BB aptamer SEQ 65] | selected | selected |
| GGGAGAGAGGAAGAGGGAUGGGGGAUCGACCCGCUUGCUGCGACACGACCGUCGUAACCAACAUAACCCAGAGGUCGAUAGUACUGGAUCCCCCC [4-1BB aptamer SEQ 61] | selected | selected |
| GGGAGAGAGGAAGAGGGAUGGGGGCUUCCCUGCACUUGAUCUGGCCCGACCACCAGCCUGUGCAUAACCCAGAGGUCGAUAGUACUGGAUCCCCCC [4-1BB aptamer SEQ 67] | selected | selected |
| GGGAGAGAGGAAGAGGGAUGGGUGCGAUCCACGGUCUAUUCACCAGUAACCUCUGACCAAAACAUAACCCAGAGGUCGAUAGUACUGGAUCCCCCC [4-1BB aptamer SEQ 47] | selected | selected |
| GGGAGAGAGGAAGAGGGAUGGGUGCUCCAAUCGGAACCAUCUCGCCGCUCGCUCUCCAUUACCAUAACCCAGAGGUCGAUAGUACUGGAUCCCCCC [4-1BB aptamer SEQ 56] | selected | selected |
| GGGAGAGAGGAAGAGGGAUGGGUGCUCUUAAUCUCCCUAAGAACCAUCUCCAUAGUCCUCCGCAUAACCCAGAGGUCGAUAGUACUGGAUCCCCCC [4-1BB aptamer SEQ 60] | selected | selected |
| GGGAGAGAGGAAGAGGGAUGGGUGGAUCUCGCUCUGGCGCUUAGCUCCGCAAAUCUGCCGUUCAUAACCCAGAGGUCGAUAGUACUGGAUCCCCCC [4-1BB aptamer SEQ 62] | selected | selected |

For at least one entry, the source does not settle the construct or the ends of the probe.
